{
  "sequences": {"note": "Sequences of proteins named here, by UniProt entry; tags and fusion partners are left off. A change or cut given only in a name is not applied to a line headed by its entry.", "UniProt P06756": "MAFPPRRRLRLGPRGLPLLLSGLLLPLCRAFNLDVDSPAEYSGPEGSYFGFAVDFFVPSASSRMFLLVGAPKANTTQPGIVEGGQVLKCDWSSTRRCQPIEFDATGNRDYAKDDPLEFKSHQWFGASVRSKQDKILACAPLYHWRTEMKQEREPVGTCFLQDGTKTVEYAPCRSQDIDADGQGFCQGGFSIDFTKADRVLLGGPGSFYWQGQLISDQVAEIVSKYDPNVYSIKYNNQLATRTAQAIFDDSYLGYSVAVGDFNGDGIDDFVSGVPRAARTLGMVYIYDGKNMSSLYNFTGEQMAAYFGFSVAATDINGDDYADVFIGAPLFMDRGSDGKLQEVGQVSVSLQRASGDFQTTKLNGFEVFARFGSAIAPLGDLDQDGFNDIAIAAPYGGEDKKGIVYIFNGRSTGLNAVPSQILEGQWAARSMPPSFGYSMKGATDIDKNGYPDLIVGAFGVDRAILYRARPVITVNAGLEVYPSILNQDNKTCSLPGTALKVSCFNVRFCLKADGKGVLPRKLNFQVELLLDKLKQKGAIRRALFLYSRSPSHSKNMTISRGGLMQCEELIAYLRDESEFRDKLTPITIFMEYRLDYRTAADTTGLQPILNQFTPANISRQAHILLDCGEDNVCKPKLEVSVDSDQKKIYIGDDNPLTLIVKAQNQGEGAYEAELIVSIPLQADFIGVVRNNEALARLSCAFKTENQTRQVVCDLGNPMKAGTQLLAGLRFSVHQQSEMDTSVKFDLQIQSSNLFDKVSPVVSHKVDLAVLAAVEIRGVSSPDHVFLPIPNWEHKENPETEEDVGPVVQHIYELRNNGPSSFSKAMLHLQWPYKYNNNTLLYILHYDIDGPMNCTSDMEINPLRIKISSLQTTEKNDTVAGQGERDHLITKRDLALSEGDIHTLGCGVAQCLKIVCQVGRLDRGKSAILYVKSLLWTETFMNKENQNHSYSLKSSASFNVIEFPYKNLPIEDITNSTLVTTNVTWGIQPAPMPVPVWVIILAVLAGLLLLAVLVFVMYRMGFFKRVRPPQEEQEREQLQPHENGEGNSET"},
  "source": "patent US20130108658A1",
  "about": "(published 2013)",
  "note": "Results are given in words; binding and its absence hold for the method and conditions named. Some binding calls cover weakened binding; strength is not graded here.",
  "data": [
    {"target": "purified αvβ3 integrin (CHEMICON) (UniProt P06756)", "test": "A20-capture ELISA, purified αvβ3 integrin 100 ng/well, normalised to A20-biot", "values": [
      {"substance": "AAV2 RGD4C 453 (from UniProt P03135 1-453; P03135 454-735)", "binding": "binds"},
      {"substance": "AAV2 RGD4C 453 A2 (from UniProt P03135 1-453; P03135 454-735)", "binding": "binds"},
      {"substance": "AAV2 RGD4C 587 (from UniProt P03135 1-587; P03135 588-735)", "binding": "binds"},
      {"substance": "AAV2 RGD4C 587 A2 (from UniProt P03135 1-587; P03135 588-735)", "binding": "binds"}
    ]}
  ]
}
